These results are taken from PubChem BioAssay AID493014 (National Center for Advancing Translational Sciences (NCATS), 2011).

Each structure is given as a SMILES string. “And” between values parts separate entries of the source, which are not always exact repeats. Equal entries are not always repeated. The list shows a part of the results. The main result of the screen is listed elsewhere. These columns were measured beside it and carry no call. The list favours compounds with an active or inconclusive main result. Potencies come from curve fits of mixed quality, noted in brackets.

By AC50 is commonly meant the concentration at which the activity in the assay is half-maximal.

The assay can be described thus: qHTS Assay to Find Inhibitors of Chronic Active B-Cell Receptor Signaling. To be noted: ABC-DLBCL IkBa-CBG/CBR reporter, luminescence ratio (green luciferase fused to IkBa over red control in TMD8 lymphoma cells), 4 h. A digest of the protocol:
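TMD8 human ABC-DLBCL cells with doxycycline-inducible IκBα–green luciferase fusion and unfused red luciferase, in 0.5% FBS medium; compounds up to 46 uM, 4 h at 37C. Green/red luminescence ratio, filter-overlap corrected, fitted to concentration-response curves.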
Background: In qHTS, concentration-response curves come from the screen itself.

[1] abbreviates: measured here: CBR red luminescence, cell number.
Setting [2] is: measured here: IkBa-CBG green luminescence.

Consider `O=C(Nc1cccnc1)c1ccccc1-c1ccccc1`, for which the AC50 under setting [1] is 0.562 µM [rising, full curve, poor fit].
As for `CSC(=O)CC(=O)NC(=O)c1ccccc1`, the AC50 under setting [1] was 16.4 µM [falling, single point].
`c1csc(CNc2ncnc3ccc(-c4ccc5c(c4)OCCO5)cc23)c1`: under setting [1], the concentration at half-maximal activity (AC50) is 29.1 µM [falling, single point] and 23.1 µM [falling, single point].
Regarding `O=C(O)CCCc1nc2ccccc2s1`, the half-maximal activity concentration (AC50) under setting [1] was 0.58 µM [rising, full curve, poor fit].
With `COc1ccccc1NC(=S)N(CCc1c(C)[nH]c2ccccc12)Cc1cccs1`, the half-maximal activity concentration (AC50) under setting [1] is 3.26 µM [rising, single point].
`CC(=O)Oc1ccc(N2C(=O)CC(N3CCOCC3)C2=O)cc1` (stereo not drawn): under setting [1], the AC50 is 14.1 µM [falling, single point].
With `COc1cccc(CC(=O)Nc2nc(-c3ccc(OC)c(OC)c3)cs2)c1`, under setting [1], the concentration at half-maximal activity (AC50) is 35.5 µM [falling, single point].
Consider `Cc1c(C(=O)Nc2ccc3c(c2)OCCO3)oc2ccc(Br)cc12`, for which the concentration at half-maximal activity (AC50) under setting [1] was 29.1 µM [falling, partial curve, poor fit].
Consider `O=C(CSc1nnc(SCc2ccc(Cl)cc2)s1)c1ccc2c(c1)OCO2`, for which, under setting [1], the AC50 was 3.26 µM [rising, partial curve, poor fit].
`O=C(NCc1ccccc1)c1nc(S(=O)(=O)Cc2ccccc2)ncc1Cl`: the half-maximal activity concentration (AC50) was 8.91 µM [falling, partial curve, poor fit] under setting [1] and 12.6 µM [rising, single point] under setting [2].
For the molecule `CCCCNCCCOc1cccc(Cl)c1Cl`, the AC50 under setting [1] was 4.61 µM [falling, partial curve, poor fit].
For the molecule `Cc1cc(C(=O)N/N=C/c2ccc([N+](=O)[O-])o2)c(C)o1`, under setting [1], the AC50 was 22.4 µM [falling, single point].
On to `COc1cccc(-n2c(C)nn(CCOc3ccccc3)c2=O)c1`, for which, under setting [1], the AC50 is 35.5 µM [rising, single point].
Regarding `O=C(NCCc1ccccc1)c1ccccc1F`, the concentration at half-maximal activity (AC50) under setting [1] is 12.6 µM [falling, single point].
Same read-out and setting: the value for `Cc1cccc(NC(=O)C(C)Oc2ccccc2C)n1` (stereo not drawn) was 29.1 µM [falling, single point].
Regarding `C/C(=N\Nc1nncc2ccccc12)c1ccc(Cl)c([N+](=O)[O-])c1`, the AC50 under setting [1] was 10 µM [falling, partial curve, poor fit].
For `COc1ccccc1N=Nc1c(O)[nH]c2ccc(Br)cc12`, the AC50 under setting [1] was 12.6 µM [falling, partial curve, poor fit].
Regarding `CC1=C(C(N)=O)C(c2ccc(C)o2)C(C(N)=O)=C(C)N1`, the concentration at half-maximal activity (AC50) under setting [1] is 0.517 µM [falling, full curve, poor fit].
As for `CC[C@]12c3[nH]c4cc(CCC(=O)N(C)C)ccc4c3CCN1C(=O)[C@@H](CC(=O)NCCC1=CCCCC1)C[C@@H]2C(=O)N1CCN(C(=O)C2CC2)CC1`, under setting [1], the AC50 was 10.3 µM [rising, partial curve].
As to `Cc1cc2c(NCCc3ccccc3)ncnc2s1`, the half-maximal activity concentration (AC50) under setting [1] is 2.82 µM [rising, single point].
Still for that read-out and setting: next, `COc1ccc(C(O)(C(C)C)C(CN2CCOCC2)c2ccc(Cl)cc2)cc1` (stereo not drawn): 4.47 µM [falling, full curve].
As for `COC(=O)c1ccc(NC(=O)CCC(=O)c2ccc(F)cc2)cc1`, under setting [1], the concentration at half-maximal activity (AC50) is 0.282 µM [rising, full curve, poor fit].
The same measure, in the same setting: next, `CCCCNC(=O)N(O)C1N(/N=C/c2cccnc2)C(=S)SC1(C)C` (stereo not drawn): 2 µM [rising, full curve, poor fit]; `O=C(NCCCN1CCOCC1)c1cccs1`: 5.17 µM [rising, single point]; `COc1ccc(Cl)cc1S(=O)(=O)n1nnc2ccccc21`: 35.5 µM [falling, single point].
As for `Cc1cccc2sc(NC(=O)CN3C(=O)NC4(CCCC4)C3=O)nc12`, under setting [1], the AC50 is 7.94 µM [falling, partial curve, poor fit].
The same measure, in the same setting: the value for `COc1ccc(-c2cc3nc(C4CCN(C(=O)OC(C)(C)C)CC4)c(C(=O)O)cn3n2)cc1` was 7.94 µM [rising, partial curve, poor fit].
With `O=c1oc(-c2cccc([N+](=O)[O-])c2)nc2ccccc12`, the AC50 under setting [1] was 2.82 µM [falling, full curve].
As for `Cc1cc(N2CCOCC2)n2ncc(-c3ccc(Cl)cc3)c2n1`, the half-maximal activity concentration (AC50) under setting [1] was 0.0891 µM [falling, full curve, poor fit].
As to `Cc1ccc(S(=O)(=O)NC(C(=O)Oc2cc3oc(=O)cc(C)c3cc2Cl)C(C)C)cc1` (stereo not drawn), the concentration at half-maximal activity (AC50) under setting [1] was 25.1 µM [falling, single point].
Same read-out and setting: the value for `CCOC(=O)c1ccc(NC(=O)Nc2ccc(F)cc2)cc1` was 10.3 µM [falling, partial curve, poor fit].
With `CCNC(=S)N/N=C/c1cccs1`, the half-maximal activity concentration (AC50) was 29.1 µM [rising, single point] under setting [1] and 18.4 µM [falling, single point] under setting [2].
As to `COc1ccccc1OCC(=O)Nc1ncc(C)s1`, the half-maximal activity concentration (AC50) under setting [1] was 13 µM [falling, partial curve, poor fit].
For the molecule `COc1ccc(/C=C2\SC(=S)N(CCC(=O)NCCCn3ccnc3)C2=O)cc1`, the half-maximal activity concentration (AC50) under setting [1] was 2 µM [falling, full curve].
In the case of `CCCNS(=O)(=O)c1ccc(OCC(=O)NCc2ccco2)cc1`, under setting [1], the AC50 was 29.1 µM [rising, single point].
As to `Cc1ccc2nc(NC(=O)CCCc3nc4ccccc4s3)sc2c1`, the AC50 under setting [1] is 29.1 µM [falling, single point].
`CCOC(=O)C(NCc1ccco1)(NC(=O)c1ccccc1)C(F)(F)F` (stereo not drawn): under setting [1], the concentration at half-maximal activity (AC50) was 29.1 µM [rising, single point].
As for `Cc1ccc(N2C(=O)c3ccccc3C2C(=O)c2ccc(C)c(C)c2O)cc1` (stereo not drawn), the concentration at half-maximal activity (AC50) under setting [1] is 20 µM [falling, single point].
For the molecule `CCOc1ncccc1C(=O)Nc1ccc(Cl)cc1`, under setting [1], the AC50 is 3.26 µM [falling, partial curve, poor fit].
On to `CCOC(=O)COc1ccc(S(=O)(=O)Nc2cccc(SC)c2)cc1`, for which the AC50 under setting [1] was 32.6 µM [rising, single point].
For the molecule `CC(C)(C)c1csc(NC(=O)CCc2ccccc2)n1`, the AC50 under setting [1] is 0.631 µM [rising, full curve, poor fit].
Take `COc1ccc(C#Cc2c(C=O)n(C)c3ccccc23)cc1`: under setting [1], the half-maximal activity concentration (AC50) was 20.6 µM [rising, partial curve].
As to `COc1ccc(C2=CC(c3c(C)nn(-c4ccccc4)c3Cl)n3nnnc3N2)cc1OC` (stereo not drawn), the AC50 under setting [1] is 1.26 µM [rising, partial curve, poor fit].
`Cc1csc(=N)n1-c1ccc(Cl)cc1`: the AC50 under setting [1] was 2.82 µM [rising, partial curve, poor fit].
For the molecule `COc1ccc(NC(=O)c2sc3nc(C)nc(N4CCOCC4)c3c2C)c(OC)c1`, the half-maximal activity concentration (AC50) under setting [1] was 15.8 µM [rising, single point].
Consider `COc1ccc(NC(=O)CSCc2ccccc2C)cc1`, for which the half-maximal activity concentration (AC50) under setting [1] was 32.6 µM [rising, single point].
With `Cc1ccc(NC(=O)c2ccc(NC(=O)C3CCCCC3C(=O)O)cc2)cc1` (stereo not drawn), under setting [1], the AC50 was 35.5 µM [falling, single point].
With `CCCc1cc(=O)oc2cc(OCC(=O)NCc3cccs3)ccc12`, under setting [1], the AC50 is 5.8 µM [rising, partial curve].
As for `CCOC(=O)c1cnc2c(ccc3ccccc32)c1N`, the half-maximal activity concentration (AC50) under setting [1] is 0.112 µM [rising, full curve, poor fit].
Regarding `N=c1n(CC(=O)c2ccc(Br)s2)c2ccccc2n1Cc1ccccc1`, the AC50 under setting [1] is 5.62 µM [falling, full curve, poor fit].
Turning to `CCCN1Cc2cccc(C(=O)NCCCOC(C)C)c2C1=O`, the concentration at half-maximal activity (AC50) under setting [1] was 20.6 µM [rising, partial curve, poor fit].
For the molecule `O=C(CCc1ccccc1)NCCc1cccs1`, the half-maximal activity concentration (AC50) under setting [1] was 15.8 µM [falling, single point].
Still for that read-out and setting: the value for `CC(C)N1C(=O)CCC1C(=O)O` (stereo not drawn) was 20.6 µM [rising, partial curve, poor fit].
`Cc1cc(=O)oc2cc(NC(=O)CC3(CC(=O)O)CCCC3)ccc12`: the AC50 under setting [1] was 12.6 µM [falling, partial curve].
For `CCC(=O)OCC(=O)c1c(N)n(Cc2ccccc2)c(=O)n(C)c1=O`, the AC50 under setting [1] is 7.08 µM [falling, full curve, poor fit].
Same read-out and setting: the value for `COc1ccc(CCN=Cc2ccc(O)cc2)cc1OC` was 25.1 µM [rising, partial curve, poor fit].
As to `COc1ccc(/C=N/Nc2nc(=O)[nH]nc2C)cc1OC`, under setting [2], the concentration at half-maximal activity (AC50) was 20 µM [falling, partial curve, poor fit].
For `Cc1ccc(S(=O)(=O)Nc2cc(=O)[nH]c(SCC(=O)Nc3cccc(C(F)(F)F)c3)n2)cc1`, the AC50 under setting [1] was 20 µM [rising, single point].
Consider `CCOC(=O)N1CCN(C(=O)CCc2c(C)nc3c(c(C)nn3-c3ccc(C)c(C)c3)c2C)CC1`, for which the half-maximal activity concentration (AC50) under setting [1] was 6.51 µM [rising, single point].
In the case of `Cc1ccc(NC(=O)CN2CCCCC2)c2c1CC(C)(C)O2`, under setting [1], the AC50 is 35.5 µM [rising, single point].
For the molecule `Cc1cc2c(cc1C)CN(c1ccccc1)C2`, the half-maximal activity concentration (AC50) under setting [1] is 0.501 µM [rising, partial curve, poor fit].
In the case of `CCOC(=O)CCn1nnc(N)n1`, the concentration at half-maximal activity (AC50) under setting [1] is 0.731 µM [rising, partial curve, poor fit].
Still for that read-out and setting: next, `O=C1c2cc(Cl)ccc2OC2(CCNCC2)C12CC(c1ccccc1)=NO2` (stereo not drawn): 15.8 µM [falling, single point]; `O=C(COc1ccc2ccccc2c1)Nc1ccc(S(=O)(=O)N2CCCCCC2)cc1`: 13 µM [rising, partial curve, poor fit].
Still for that read-out and setting: the value for `COC(=O)c1cc(-c2c(C)oc3cc(O)ccc3c2=O)c(C)o1` was 20.6 µM [rising, single point]; that for `O=c1c(-c2ccccc2)c1-c1ccccc1` was 11.2 µM [falling, partial curve].
